Data published in article doi:10.1101/2020.12.29.424673.
Results are given in words; binding and its absence hold for the method and conditions named. Binding seen in cells or lysates may run through a third protein. Some binding calls cover weakened binding; strength is not graded here.

Protein sequences, listed by entry. Tags and fused reporters are not part of them. Lines headed by an entry give the natural chain unless they say otherwise; changes in a name come on top.
UniProt P61586: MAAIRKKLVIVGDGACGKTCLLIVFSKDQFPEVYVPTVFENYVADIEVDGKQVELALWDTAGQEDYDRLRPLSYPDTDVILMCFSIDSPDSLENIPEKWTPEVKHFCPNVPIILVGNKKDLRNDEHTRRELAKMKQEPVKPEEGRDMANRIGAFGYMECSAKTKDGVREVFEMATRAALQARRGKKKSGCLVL

Biological target: GST-RhoA G17A (UniProt P61586)
Assay: pull-down

B1: GEF-H1 (RhoA guanine nucleotide exchange factor), mouse, endogenous (protein, UniProt Q60875 1-985)
chain: MSRIESLTRARIDRSKEQATKTREKEKMKEAKDARYTNGHLFTTISVSGMTMCYACNKSITAKEALICPTCNVTIHNRCKDTLANCTKVKQKQQKAALLRNNTALQSVSLRSKTTTRERPTSAIYPSDSFRQSLLGSRRGLSSLSLAKSVSTTNIAGHFNDESPLGLRQILSQSTDSLNMRNRTLSVESLIDEGVEVFYNELMSDFEMDEKDFEADSWSLAVDSSFLQQHKKEVMKKQDVIYELIQTELHHVRTLKIMTRLFRTGMLEELQMEPEVVQGLFPCVDELSDIHTRFLNQLLERRRQALCPGSTRNFVIHRLGDLLISQFSGSNAEQMRKTYSEFCSRHTKALKLYKELYARDKRFQQFIRKMTRSAVLKRHGVQECILLVTQRITKYPVLINRILQNSHGVEEEYQDLASALGLVKELLSNVDQDVHELEKEARLQEIYNRMDPRAQTPVPGKGPFGRDELLRRKLIHEGCLLWKTATGRFKDVLLLLMTDVLVFLQEKDQKYIFTSLDKPSVVSLQNLIVRDIANQAKGMFLISSGPPEMYEVHAASRDDRTTWIRVIQQSVRLCPSREDFPLIETEDKAYLRRIKTKLQQKNQALVELLQKNVELFAEMVHFQALKAGFVGMPPPALPRGLFRLESFESLRGERLLKDALREVEGLKDLLLGPCVDLPMTSREPALPLDSDSGSCPGVTANGEARTFNGSIELCRADSDSSQKDRNGNQLRSPQEEVLQPLINLYGLLHGLQAVVVQQERLMEALFPEGPERWEKLSRANSRDGEAGRAAVASVTPEKQATELALLQRQHTLLQEELRRCQRLGEERATEAGSLEARLRESEQARALLEREAEEIRRQLAALGQNEPLPAEAPWARRPLDPRRRSLPAGDALYLSFNPPQPSRGHDRLDLPVTVRSLHRPFDDREAQELGSPEDRLQDSSDPDTGSEEEVSSRLSPPHSPRDFTRMQDIPEETESRDGEPTASES
binding: binds
